A short description of this experiment: qHTS Assay for Lipid Storage Modulators in Drosophila S3 Cells.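 For cell number change: cells counted by Cell Tracker Red CMTPX staining in the red channel.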 As to conditions: BODIPY lipid droplet fluorescence, 18-24 h; for cell number change: measured here: cell count max response, cells fed with added oleic acid. The procedure, abridged:
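Laser-scanning cytometry quantifies lipid droplet accumulation (500–530 nm total intensity; droplet/cell object ratio) in oleic acid-fed (400 uM added) Drosophila S3 cells treated with a concentration series. 20 uM Triacsin C defined 100% inhibition.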
On the technique in general: In qHTS, concentration-response curves come from the screen itself.

The mark [1] stands for this setting: measured here: lipid fluorescence (Fed channel) AC50, cells fed with added oleic acid.
[2] abbreviates: measured here: cell number channel AC50, cells fed with added oleic acid.

The other results are listed elsewhere or left out. Shown are side measurements of this screen, not its main read-out; they come without a call. Compounds called inactive in the main read-out are mostly missing here. The note in brackets gives the kind of curve behind each potency; many fits are weak.

In general, AC50 refers to the concentration giving half of the maximal activity seen. Lower therefore signals greater potency.

Regarding `O=C(CCl)Nc1cn(-c2ccccc2)nc1-c1ccc(F)cc1`, the cell number change was determined as 32.5%. In addition, under setting [1], the AC50 was 0.13 µM [rising, full curve, poor fit].

On to `CCC1CCc2sc(C(=O)N(C)CC(=O)Nc3ccc(OC)cc3)cc2C1` (centres undefined), for which the cell number change was -37.5%. The AC50 under setting [2] was 29.1 µM [falling, partial curve, poor fit].

As for `CN(CC(=O)Nc1nc2ccccc2s1)S(=O)(=O)c1ccc(Cl)cc1`, the concentration at half-maximal activity (AC50) is 1.84 µM [rising, partial curve] under setting [2] and 6.51 µM [rising, partial curve] under setting [1].

For the compound `O=C(Cc1ccc(F)cc1)Nc1cccc2cccnc12`, the cell number change is 33%. In addition, under setting [2], the AC50 was 5.8 µM [rising, partial curve].

For `COC(=O)CC1C(=O)NCCN1C(=O)c1cc(OC)c(OC)cc1OC` (centres undefined), the cell number change stood at 1.42%.

Regarding `CCC1(CC)N([O-])C(C)=C(c2ccccc2)[N+]1=O`, the cell number change is -11.9%. In addition, the AC50 under setting [1] was 0.731 µM [falling, full curve, poor fit].

Consider `CCN(c1ccccc1C)S(=O)(=O)c1nnc(NC(=O)c2ccco2)s1`, for which the cell number change was -27.1%. Besides, the AC50 under setting [1] is 6.51 µM [falling, partial curve].

Take `COC(=O)c1cccc(NC(=O)Nc2ccc(Cl)c(Cl)c2)c1`: the cell number change was -11.4%. Also, the AC50 under setting [1] was 20.6 µM [rising, single point].

Take `C/C=C(/C)C(=O)OC(C)(C)[C@@H]1Cc2c(ccc3ccc(=O)oc23)O1`: the cell number change is 19%. In addition, the AC50 under setting [1] was 9.2 µM [rising, partial curve].

Regarding `CC(C)(C)C(=O)N1CCC(O)(CS(=O)(=O)Cc2ccccc2Cl)CC1`, the AC50 runs as follows: under setting [2], 1.84 µM [rising, partial curve, poor fit]; under setting [1], 5.8 µM [rising, partial curve].

Consider `COCC(=O)Nc1ccc2nc3n(c(=O)c2c1)CCCCC3`, for which the cell number change was -2.99%.

As for `CCCC(=O)Nn1cnc2c(c1=O)C1(CCCCC1)Cc1ccccc1-2`, the cell number change was determined as 1.12%.

Turning to `O=C(NCCc1csc(-c2cccnc2)n1)c1ccc(Br)o1`, the AC50 under setting [2] was 0.116 µM [rising, full curve, poor fit].

`Cc1ccc(NC(=S)NC(=O)c2ccc(-c3ccccc3)cc2)c(C)c1`: the cell number change was -2.45%.

As to `CCCCCCNC(=O)N[C@H](C(=O)NCCC[C@H]1CN2C(=NC[C@H]2C)N1CCC(c1ccccc1)c1ccccc1)C(C)O` (some centres undefined), the cell number change was -21.2%. In addition, the AC50 under setting [2] was 2.31 µM [falling, full curve, poor fit].

Take `Cc1nnc2sc(SCC(=O)Nc3cccc(Cl)c3)nn2c1=O`: the cell number change is -7.36%. Besides, the AC50 under setting [2] is 1.46 µM [falling, full curve, poor fit].

With `CC1CN(C(=O)c2cnn3c(C(F)F)cc(-c4ccccc4)nc23)CC(C)O1` (centres undefined), the cell number change was 34.6%. In addition, under setting [2], the AC50 is 1.16 µM [rising, partial curve]. Besides, the concentration at half-maximal activity (AC50) under setting [1] was 4.61 µM [rising, partial curve].

For `Cc1ccc(C2(c3ccc(C)cc3)CC2C(=O)NC(C)C)cc1` (centres undefined), the cell number change turned out to be 16.2%.

On to `O=C1CN(C(=O)CSc2nc3ccccc3c(=O)n2Cc2ccc(F)cc2)c2ccccc2N1`, for which the cell number change was 1.2%. For the same compound, under setting [1], the AC50 was 20.6 µM [falling, single point].

Take `O=C(Nc1cnn(Cc2ccc(F)cc2)c1)c1cc(-c2cccs2)on1`: the cell number change is -59.8%. In addition, the AC50 under setting [2] was 20.6 µM [falling, single point]. Moreover, under setting [1], the AC50 was 20.6 µM [falling, single point].

`COc1ccc(NC(=O)C(=O)NCCCO)cc1Cl`: under setting [1], the AC50 is 29.1 µM [rising, single point].

With `C=CCOc1ccc(C(=O)NC2CCCCC2)cc1`, the cell number change was 34.9%. For the same compound, the AC50 under setting [2] was 4.11 µM [rising, partial curve].

Regarding `C/C(=N\NS(=O)(=O)c1ccccc1)c1cccc(NC(=O)c2cccc(Cl)c2)c1`, the cell number change is -18.4%. For the same compound, the AC50 under setting [1] was 29.1 µM [falling, single point].

As for `O=C(Nc1cccnc1)c1ccc(Cl)c(S(=O)(=O)N2CCCC2)c1`, the cell number change was -34.2%. Further, the AC50 under setting [2] was 1.16 µM [falling, full curve].

For `C=CCn1c(O)c(C(CC)=NCc2cccnc2)c(=O)[nH]c1=O`, the cell number change was -9.15%. Also, the AC50 under setting [1] was 7.31 µM [rising, partial curve].

With `CC(=O)Nc1ccc(S(=O)(=O)NNC2=NS(=O)(=O)c3ccccc32)cc1`, the cell number change is -43.7%. The AC50 under setting [2] was 18.4 µM [falling, single point]. The AC50 under setting [1] was 23.1 µM [falling, single point].

With `Cc1nc2ccc(NC(=O)Cc3c(F)cccc3Cl)cc2s1`, the cell number change worked out at 19.1%.

Consider `Cc1ccc(NS(=O)(=O)c2ccc(Cl)c(NC(=S)NC(=O)C3CCCCC3)c2)cc1Cl`, for which the cell number change was -68.8%. In addition, under setting [2], the AC50 is 0.366 µM [falling, partial curve, poor fit]. In addition, the AC50 under setting [1] was 5.8 µM [falling, partial curve].

For the compound `O=C(Cn1ccc(NC(=O)OCc2ccccc2)nc1=O)NCc1nc2ccccc2[nH]1`, the cell number change is -2.71%. For the same compound, under setting [1], the AC50 is 18.4 µM [falling, single point].

Take `COc1ccc(OCCC(=O)NCC23CC4CC(CC(C4)C2)C3)cc1`: the cell number change worked out at 94.8%. For the same compound, under setting [2], the AC50 was 0.092 µM [falling, full curve, poor fit]. Besides, the AC50 under setting [1] is 0.092 µM [falling, full curve, poor fit].

As to `COc1ccccc1-c1nnc(NC(=O)CCS(=O)(=O)c2ccccc2)o1`, the cell number change is 16.8%. Further, the AC50 under setting [1] was 29.1 µM [falling, partial curve, poor fit].

Take `O=C(/C=C/c1ccccc1)N1CCN(S(=O)(=O)c2ccc(F)cc2)CC1`: the cell number change is 20.8%. Besides, under setting [2], the AC50 is 0.13 µM [rising, full curve, poor fit]. The AC50 under setting [1] was 0.164 µM [rising, full curve].

Regarding `FC(F)Oc1ccc(NC(=S)N2CCc3ccccc32)cc1`, the cell number change was found to be 74.5%. Besides, under setting [2], the AC50 was 0.291 µM [rising, full curve]. The AC50 under setting [1] was 5.8 µM [rising, full curve].

As for `C=CCN(CC=C)C(=O)c1ccc2nc(Cc3ccc(OC)c(OC)c3)oc2c1`, the cell number change was -45.4%. Also, the AC50 under setting [2] is 7.31 µM [falling, partial curve].

For the compound `Clc1ccc(-n2ncc3c(NCCCn4ccnc4)ncnc32)cc1`, the AC50 under setting [1] is 0.366 µM [rising, partial curve, poor fit].

Regarding `CS(=O)(=O)N1CCN(c2ccccc2NC(=O)Cc2ccccc2)CC1`, the cell number change worked out at 11.5%. Also, under setting [1], the AC50 is 3.66 µM [rising, single point].

`COc1ccc(/C=N/NC(=O)C(C)n2cnc3ccccc3c2=O)cc1OC` (centres undefined): the cell number change was 4.6%. For the same compound, the AC50 under setting [1] is 0.291 µM [rising, full curve, poor fit].

Regarding `CC(OC(=O)CCN1C(=O)c2cccc([N+](=O)[O-])c2C1=O)C(=O)Nc1cc(Cl)cc(Cl)c1` (centres undefined), the cell number change is -52.3%. Besides, under setting [2], the AC50 was 2.59 µM [falling, full curve]. Further, the AC50 under setting [1] was 2.06 µM [falling, full curve].

For the compound `COC(=O)c1cc(C(=O)OC)n(Cc2ccc(Br)cc2)n1`, the cell number change is -73.2%. For the same compound, the AC50 under setting [2] was 20.6 µM [falling, single point].

`CCOc1cc(C(=O)CCC(=O)OCC(=O)Nc2ccc(F)cc2)ccc1O`: the cell number change was -24%.

Regarding `C=C(C)COc1ccc(-c2[nH]ncc2Oc2ccc(OC)cc2)c(O)c1`, the cell number change was -25%. Under setting [1], the AC50 is 29.1 µM [falling, single point].

Take `O=C(Nc1nnc(Cc2ccccc2F)s1)Nc1ccccc1F`: the cell number change was -1.92%. Moreover, the AC50 under setting [1] is 0.13 µM [rising, full curve, poor fit].

For `COc1ccc(OC)c(S(=O)(=O)NCC(c2ccco2)S(=O)(=O)c2ccccc2)c1` (centres undefined), the cell number change stood at 16.4%. In addition, under setting [1], the AC50 was 10.3 µM [rising, partial curve, poor fit].

With `Cc1ccc(N=C2NC(=O)CC(C(=O)Nc3ccc4c(c3)OCO4)S2)cc1` (centres undefined), the cell number change worked out at 46.8%.

On to `CCOC(=O)CN1C(=O)C(CC)Oc2ccc(Cl)cc21` (centres undefined), for which the cell number change is 14.9%. Besides, under setting [1], the AC50 is 9.2 µM [rising, partial curve, poor fit].

Consider `CC(C)(C)NC(=O)COc1ccc(S(=O)(=O)N2CCCC2)cc1`, for which the cell number change is 8.39%. The AC50 under setting [1] was 16.4 µM [falling, single point].

For the compound `CCOc1ccc(C(C(=O)NC(C)(C)C)N(CCOC)C(=O)CCC(=O)Nc2ccccn2)cc1` (centres undefined), the cell number change was -21.4%.

Take `CCC(C)(C)NC(=O)C(c1cccc(OC)c1OC)N(CCOC)C(=O)CCC(=O)Nc1cc(C)on1` (centres undefined): the cell number change amounted to 34.6%. Moreover, under setting [2], the AC50 was 32.6 µM [rising, single point]. Moreover, the concentration at half-maximal activity (AC50) under setting [1] is 29.1 µM [falling, single point].

Regarding `O=C(CNC(=O)c1sc2ccccc2c1Cl)NCc1ccc(F)cc1`, the AC50 under setting [2] was 0.651 µM [rising, full curve].

With `CCCCn1c(=N)n(CC(=O)c2ccc(Br)s2)c2ccccc21`, the cell number change was -16.5%. The AC50 under setting [1] was 32.6 µM [falling, single point].

As to `Cc1ccccc1C(=O)NC(CC(C)C)C(=O)Nc1cccc(S(=O)(=O)N(C)C)c1` (centres undefined), the cell number change is -18%. Besides, the AC50 under setting [2] is 5.17 µM [rising, single point]. Also, under setting [1], the AC50 was 2.06 µM [rising, partial curve].

As to `CCc1ccccc1NC(=O)CSc1nnc(-c2ccco2)n1N`, the cell number change is -0.204%. Also, the AC50 under setting [1] is 0.184 µM [rising, full curve].

Regarding `O=C(O)/C(=C\c1ccccc1OC(F)F)Sc1nnc(-c2ccc(F)cc2)o1`, the cell number change is -8.53%.

Consider `CN1CCN(S(=O)(=O)c2ccc(Cl)c3ccccc23)CC1`, for which the cell number change worked out at 19.8%. For the same compound, the AC50 under setting [2] is 1.84 µM [rising, partial curve, poor fit]. In addition, the AC50 under setting [1] is 11.6 µM [rising, single point].

Turning to `CCCOc1ccc(C(=O)CCC(=O)OC(C)C(=O)Nc2ccc(NC(C)=O)cc2)cc1` (centres undefined), the cell number change is 47.9%. Further, under setting [2], the AC50 is 6.51 µM [falling, single point]. For the same compound, under setting [1], the AC50 is 2.06 µM [falling, partial curve].

Consider `O=C(Cn1cc([N+](=O)[O-])ccc1=O)N1CCCc2ccccc21`, for which the cell number change is -0.694%. The AC50 under setting [1] was 0.517 µM [falling, full curve].

For `CCOCCCNC(=O)c1cc2c(s1)-c1ccccc1SC2`, the cell number change was 9.15%. For the same compound, the AC50 under setting [1] is 29.1 µM [falling, single point].

Consider `N/C(=N\OC(=O)Nc1ccc(Cl)cc1)c1ncc(C(F)(F)F)cc1Cl`, for which the cell number change was -15.6%. For the same compound, under setting [1], the AC50 is 6.51 µM [falling, partial curve].

(Values after PubChem BioAssay AID2685 (National Center for Advancing Translational Sciences (NCATS), 2010).)
